According to publication PMC4534191:
These are yes or no findings as the source states them, for the method shown. In cells and extracts the contact can be indirect. Some results given as binding are weak or reduced against the parent protein; the word gives no strength.

Chains of the proteins cited; added tags and fusions are not shown.
UniProt Q15836: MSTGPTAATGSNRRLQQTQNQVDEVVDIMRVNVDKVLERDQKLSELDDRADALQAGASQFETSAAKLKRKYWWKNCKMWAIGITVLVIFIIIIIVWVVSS

Target: T1, SNAP23 (human (endogenous in HUVEC)) (UniProt O00161)
T1 sequence: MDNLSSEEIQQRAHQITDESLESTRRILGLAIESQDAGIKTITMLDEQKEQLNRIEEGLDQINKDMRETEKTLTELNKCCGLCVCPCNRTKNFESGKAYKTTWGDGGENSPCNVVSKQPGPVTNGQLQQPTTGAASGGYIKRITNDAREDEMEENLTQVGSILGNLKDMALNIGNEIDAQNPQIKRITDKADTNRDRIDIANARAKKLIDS
Test: co-IP; HUVEC resting (serum-free medium) or stimulated with 10 μM histamine or 10 μM A23187 for 30 min, lysed in M-PER; antibody to SNAP23 or isotype IgG on protein A/G PLUS-agarose, overnight at 4°C, 6 washes with cold PBS; precipitants probed for STX4, VAMP3 and VAMP8

- binding: binds
Substance: vesicle-associated membrane protein (VAMP) 3 (from UniProt Q15836 1-100)
